{
  "source": "patent US5506147A",
  "about": "“Non-invasive evaluation of maldigestion and malaborption” (priority 1994, dated 1996)",
  "origin": "cited, not measured here",
  "key": {"[1]": {"system": "Common intestinal bacteria", "settings": "cited from earlier work"}, "[2]": {"system": "enzymes other than chymotrypsin", "settings": "cited from earlier work"}},
  "note": "At least one structure is not confirmed: it was looked up by name or label, or the drawing left a doubt.",
  "data": [
    {"smiles": "O=C(O)c1ccc(NC(=O)[C@H](Cc2ccc(O)cc2)NC(=O)c2ccccc2)cc1", "note": "[Bentiromide, N-benzoyl-L-tyrosyl-p-aminobenzoic acid]", "values": [
      {"measurement": "conversion of bentiromide to PABA", "setting": "[1]", "value": "do not appear to convert bentiromide to PABA"},
      {"measurement": "conversion of bentiromide to PABA", "setting": "[2]", "value": "only in residual amounts"}
    ]}
  ]
}
